No constants are given. Whether binding was seen depends on the method and setting. In cells and extracts the contact can be indirect. Some results given as binding are weak or reduced against the parent protein; the word gives no strength.
Experiments:
[1] = target: GST-RelA (1-313) fusion protein (human) (UniProt Q04206); assay: nondenaturing coimmunoprecipitation of purified recombinant proteins with anti-RelA Ab, immunoblot with anti-IκBα
[2] = target: GST-RelA (1-313) fusion protein (human) (UniProt Q04206); assay: nondenaturing coimmunoprecipitation with anti-RelA Ab, Western immunoblot with anti-IκBα
[3] = target: GST-RelA (1-313) fusion protein (human) (UniProt Q04206); assay: nondenaturing coimmunoprecipitation with anti-RelA Ab, immunoblot with anti-IκBα (legend of FIG. 5A)

Amino acid sequences for entries named in this document (tags omitted). Residues count along the entry.
UniProt Q04206, residues 1-313: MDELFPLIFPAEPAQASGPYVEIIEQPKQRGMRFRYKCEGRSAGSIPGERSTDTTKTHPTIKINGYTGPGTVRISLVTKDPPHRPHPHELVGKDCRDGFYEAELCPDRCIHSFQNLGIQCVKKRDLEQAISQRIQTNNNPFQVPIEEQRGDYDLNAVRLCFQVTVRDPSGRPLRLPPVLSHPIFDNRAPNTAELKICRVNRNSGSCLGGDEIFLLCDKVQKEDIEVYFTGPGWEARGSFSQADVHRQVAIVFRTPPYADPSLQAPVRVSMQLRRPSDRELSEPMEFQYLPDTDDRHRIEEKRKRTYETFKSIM
UniProt P25963: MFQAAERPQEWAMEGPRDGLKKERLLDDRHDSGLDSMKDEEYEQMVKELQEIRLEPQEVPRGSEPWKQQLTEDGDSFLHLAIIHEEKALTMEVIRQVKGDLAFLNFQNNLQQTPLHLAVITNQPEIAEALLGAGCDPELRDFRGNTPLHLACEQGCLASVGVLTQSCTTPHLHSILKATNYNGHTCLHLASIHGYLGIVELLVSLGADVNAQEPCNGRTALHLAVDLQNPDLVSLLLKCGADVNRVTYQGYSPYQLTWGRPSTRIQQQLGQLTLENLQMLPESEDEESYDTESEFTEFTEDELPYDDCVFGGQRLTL

Measured: binding

recombinant full length GST-IκBα (from UniProt P25963 1-317)
binds: all assays above

— patent US20150259687A1
